Data as given in article PMC9424285.
These are yes or no findings as the source states them, for the method shown. Binding seen in cells or lysates may run through a third protein. Some entries that bind do so weakly or less than the wild type.

Chains of the proteins cited; added tags and fusions are not shown. Lines headed by an entry give the natural chain unless they say otherwise; changes in a name come on top.
UniProt Q05397: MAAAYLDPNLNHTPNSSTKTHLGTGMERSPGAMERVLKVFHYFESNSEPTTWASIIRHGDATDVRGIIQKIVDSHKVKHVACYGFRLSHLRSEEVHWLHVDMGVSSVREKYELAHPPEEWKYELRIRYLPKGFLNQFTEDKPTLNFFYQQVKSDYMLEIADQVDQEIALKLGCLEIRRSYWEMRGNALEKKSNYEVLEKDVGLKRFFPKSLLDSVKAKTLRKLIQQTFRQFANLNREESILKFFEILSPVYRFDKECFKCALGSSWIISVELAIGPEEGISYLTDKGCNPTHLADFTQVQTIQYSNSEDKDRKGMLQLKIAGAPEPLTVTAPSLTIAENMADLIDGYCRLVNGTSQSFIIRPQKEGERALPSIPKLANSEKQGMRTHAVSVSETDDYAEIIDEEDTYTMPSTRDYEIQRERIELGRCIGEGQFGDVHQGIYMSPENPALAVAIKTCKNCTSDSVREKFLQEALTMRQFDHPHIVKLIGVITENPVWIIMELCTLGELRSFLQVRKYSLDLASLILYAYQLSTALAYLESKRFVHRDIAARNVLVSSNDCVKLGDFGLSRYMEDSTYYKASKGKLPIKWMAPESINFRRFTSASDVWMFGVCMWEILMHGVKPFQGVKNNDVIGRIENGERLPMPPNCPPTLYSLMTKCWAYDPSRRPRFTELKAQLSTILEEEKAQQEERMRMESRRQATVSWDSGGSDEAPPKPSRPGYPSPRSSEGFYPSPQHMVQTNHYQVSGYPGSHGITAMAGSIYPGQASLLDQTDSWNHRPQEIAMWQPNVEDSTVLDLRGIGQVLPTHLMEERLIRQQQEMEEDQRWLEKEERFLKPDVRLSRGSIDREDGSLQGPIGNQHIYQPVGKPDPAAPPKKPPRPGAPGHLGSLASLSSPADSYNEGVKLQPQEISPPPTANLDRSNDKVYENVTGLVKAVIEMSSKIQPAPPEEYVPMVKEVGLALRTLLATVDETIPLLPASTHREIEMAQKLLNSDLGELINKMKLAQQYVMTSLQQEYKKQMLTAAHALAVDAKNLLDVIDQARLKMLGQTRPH
UniProt P23743: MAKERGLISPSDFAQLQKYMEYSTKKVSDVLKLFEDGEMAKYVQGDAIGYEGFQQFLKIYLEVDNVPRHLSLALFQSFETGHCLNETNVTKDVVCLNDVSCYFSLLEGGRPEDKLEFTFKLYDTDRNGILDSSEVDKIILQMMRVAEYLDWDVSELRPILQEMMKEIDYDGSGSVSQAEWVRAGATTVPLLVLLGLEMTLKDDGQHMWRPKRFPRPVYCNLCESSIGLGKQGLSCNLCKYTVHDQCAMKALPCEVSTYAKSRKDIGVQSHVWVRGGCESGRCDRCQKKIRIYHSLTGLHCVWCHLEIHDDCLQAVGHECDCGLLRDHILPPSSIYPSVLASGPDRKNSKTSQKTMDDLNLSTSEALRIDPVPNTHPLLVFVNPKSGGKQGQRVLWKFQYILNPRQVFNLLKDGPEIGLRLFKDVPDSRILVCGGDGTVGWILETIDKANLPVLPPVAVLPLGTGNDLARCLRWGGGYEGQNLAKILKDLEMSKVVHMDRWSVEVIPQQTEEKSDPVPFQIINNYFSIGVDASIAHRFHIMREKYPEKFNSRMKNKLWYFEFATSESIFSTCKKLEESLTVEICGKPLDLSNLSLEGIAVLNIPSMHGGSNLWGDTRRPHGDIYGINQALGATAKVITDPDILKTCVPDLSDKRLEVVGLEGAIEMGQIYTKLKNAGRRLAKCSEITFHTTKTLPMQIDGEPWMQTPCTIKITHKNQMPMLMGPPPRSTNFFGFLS
UniProt P27986: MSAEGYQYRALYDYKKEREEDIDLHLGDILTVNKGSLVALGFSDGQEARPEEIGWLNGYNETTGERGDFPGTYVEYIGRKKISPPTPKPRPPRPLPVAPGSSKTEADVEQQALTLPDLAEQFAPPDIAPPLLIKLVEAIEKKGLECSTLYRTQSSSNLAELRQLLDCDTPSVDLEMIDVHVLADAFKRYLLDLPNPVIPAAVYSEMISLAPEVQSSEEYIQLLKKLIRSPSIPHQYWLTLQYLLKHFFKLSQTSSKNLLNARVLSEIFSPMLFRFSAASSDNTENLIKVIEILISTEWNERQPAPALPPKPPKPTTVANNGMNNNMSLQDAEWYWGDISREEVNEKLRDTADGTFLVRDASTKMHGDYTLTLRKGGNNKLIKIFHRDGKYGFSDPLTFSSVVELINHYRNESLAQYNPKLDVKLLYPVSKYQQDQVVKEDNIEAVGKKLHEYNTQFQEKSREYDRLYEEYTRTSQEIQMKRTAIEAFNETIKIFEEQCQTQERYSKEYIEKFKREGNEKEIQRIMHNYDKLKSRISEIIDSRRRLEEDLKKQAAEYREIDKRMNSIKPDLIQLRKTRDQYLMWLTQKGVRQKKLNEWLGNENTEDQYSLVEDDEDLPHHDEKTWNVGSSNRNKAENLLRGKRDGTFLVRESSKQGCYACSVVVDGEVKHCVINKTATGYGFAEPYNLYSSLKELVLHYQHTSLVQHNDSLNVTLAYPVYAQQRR

How the values were obtained:
[1] = molecular target: focal adhesion kinase (FAK) (human (endogenous in KYSE410 and KYSE510)) (UniProt Q05397); assay: co-IP; immunoprecipitation-immunoblotting of DGKα and FAK at the plasma membrane; control, vector or DGKα Y335F mutant KYSE410 and KYSE510 cells treated with CCL22 (50 ng/ml)
[2] = molecular target: T1, C-C motif chemokine receptor 4 (CCR4) (human (endogenous in KYSE410 and KYSE510)) (UniProt P51679); assay: co-IP; immunoprecipitation-immunoblotting of KYSE410 and KYSE510 cells treated with CM from pol-TAMs, CM from pri-TAMs or CCL22 (50 ng/ml)
T1 sequence: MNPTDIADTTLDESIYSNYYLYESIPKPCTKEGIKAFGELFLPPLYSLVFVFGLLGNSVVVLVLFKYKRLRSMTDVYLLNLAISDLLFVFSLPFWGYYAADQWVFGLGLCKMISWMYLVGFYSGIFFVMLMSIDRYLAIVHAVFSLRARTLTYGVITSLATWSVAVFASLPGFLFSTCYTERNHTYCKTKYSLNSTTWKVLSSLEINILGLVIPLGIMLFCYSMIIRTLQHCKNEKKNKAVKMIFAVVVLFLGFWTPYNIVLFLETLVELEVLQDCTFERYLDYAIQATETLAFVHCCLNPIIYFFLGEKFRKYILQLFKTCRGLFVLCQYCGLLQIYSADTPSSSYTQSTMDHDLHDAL

[3] = molecular target: T2, phospholipase C-γ1 (PLC-γ1) (human (endogenous in KYSE410 and KYSE510)) (UniProt P19174); assay: co-IP; immunoprecipitation-immunoblotting of KYSE410 or KYSE510 cells treated with CCL22 (50 ng/ml); PLC-γ1 against its partners
T2 sequence: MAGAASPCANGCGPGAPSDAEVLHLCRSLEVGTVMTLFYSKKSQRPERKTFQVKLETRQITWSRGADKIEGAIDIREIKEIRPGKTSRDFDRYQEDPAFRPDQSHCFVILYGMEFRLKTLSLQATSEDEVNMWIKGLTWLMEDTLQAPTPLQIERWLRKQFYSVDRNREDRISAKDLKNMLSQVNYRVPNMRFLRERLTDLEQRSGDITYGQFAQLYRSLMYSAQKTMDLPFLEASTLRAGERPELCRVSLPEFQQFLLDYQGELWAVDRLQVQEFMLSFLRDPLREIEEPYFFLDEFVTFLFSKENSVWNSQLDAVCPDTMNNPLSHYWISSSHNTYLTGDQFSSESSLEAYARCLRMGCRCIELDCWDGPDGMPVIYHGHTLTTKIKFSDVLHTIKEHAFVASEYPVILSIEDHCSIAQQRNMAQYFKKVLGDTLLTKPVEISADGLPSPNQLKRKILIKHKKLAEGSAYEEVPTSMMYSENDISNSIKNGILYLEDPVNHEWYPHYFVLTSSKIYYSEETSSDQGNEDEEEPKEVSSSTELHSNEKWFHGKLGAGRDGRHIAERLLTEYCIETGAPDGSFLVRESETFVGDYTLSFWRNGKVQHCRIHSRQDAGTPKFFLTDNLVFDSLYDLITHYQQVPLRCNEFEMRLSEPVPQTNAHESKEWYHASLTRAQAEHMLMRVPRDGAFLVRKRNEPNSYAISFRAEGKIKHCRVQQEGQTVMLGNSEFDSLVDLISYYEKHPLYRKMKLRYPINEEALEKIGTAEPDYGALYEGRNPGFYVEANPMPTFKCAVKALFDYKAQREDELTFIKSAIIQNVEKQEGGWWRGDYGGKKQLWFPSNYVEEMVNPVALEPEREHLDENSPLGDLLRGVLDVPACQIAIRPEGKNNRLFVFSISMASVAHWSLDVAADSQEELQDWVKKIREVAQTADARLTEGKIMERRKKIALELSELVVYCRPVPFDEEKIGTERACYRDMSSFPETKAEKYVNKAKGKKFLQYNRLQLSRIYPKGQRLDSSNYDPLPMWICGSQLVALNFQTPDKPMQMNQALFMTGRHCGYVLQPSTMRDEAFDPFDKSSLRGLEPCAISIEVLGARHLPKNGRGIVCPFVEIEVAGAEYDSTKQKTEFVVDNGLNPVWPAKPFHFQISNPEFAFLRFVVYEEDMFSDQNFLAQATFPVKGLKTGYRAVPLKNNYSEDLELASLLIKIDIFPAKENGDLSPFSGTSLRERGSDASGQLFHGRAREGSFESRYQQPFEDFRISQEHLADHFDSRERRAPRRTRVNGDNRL

[4] = molecular target: focal adhesion kinase (FAK) (human (endogenous in KYSE410 and KYSE510)) (UniProt Q05397); assay: condition: only cells with CCR4 siRNA, PLC-γ1 siRNA or BAPTA-AM (10 μM); co-IP; immunoprecipitation-immunoblotting of DGKα and FAK at the plasma membrane; KYSE410 and KYSE510 cells with CCR4 siRNA, PLC-γ1 siRNA or the Ca2+ chelator BAPTA-AM (10 μM, 90 min) and then CCL22 (50 ng/ml)

binding [1] | binding [2] | binding [3] | binding [4] | Substance
no binding |  |  |  | Flag-DGKα Y335F (from UniProt P23743 1-735) (enzyme)
 | no binding |  |  | PI3K regulatory subunit p85α (from UniProt P27986 1-724)
binds |  | binds | no binding | diacylglycerol kinase α (DGKα) (from UniProt P23743 1-735) (enzyme)
 |  | no binding |  | focal adhesion kinase (FAK) (from UniProt Q05397 1-1052) (enzyme)
